For at least one entry, the source does not settle the construct or the ends of the probe. Where a protein sequence is shown, tags need not be part of it.

The data set has as its target T1, GST-androgen receptor DNA binding domain (GST-DBD) (Homo sapiens) (UniProt P10275).
T1 sequence (looked up): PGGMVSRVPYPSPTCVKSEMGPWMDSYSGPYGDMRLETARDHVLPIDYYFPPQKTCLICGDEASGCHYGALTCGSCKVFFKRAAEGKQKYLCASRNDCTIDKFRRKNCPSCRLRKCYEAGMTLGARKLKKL
Nature of the data set: binding assay. The settings on record: electrochemiluminescence bead assay (IGEN ORIGEN), Ru-labelled anti-GST antibody, streptavidin beads; PBS pH 7.2, 100 ng/ml poly dI/dC, room temperature; purified recombinant protein; protein details: GST fusion, obtained from Dr. Steven Balk; label: 5'-biotin on SEQ 54 strand.

Regarding “AGTCTGGTACAGGGTGTTCTTTTTA (double strand) [biotinylated ARE duplex oligonucleotide]”, the binding result was “binds”.

Source of the values: US20030045680A1, “Peptidic modulators of the androgen receptor” (Praecis Pharmaceuticals Inc., priority 2001, published 2003).
